Source: patent US11644474B2, “Use of macimorelin in assessing growth hormone deficiency in children” (Æterna Zentaris GmbH, priority 2020, dated 2023)

System: GH secretion
Test: Diagnostic outcome of macimorelin GHST vs two standard GHSTs and investigator's assessment
Type: in vivo, human (paediatric subjects with suspected GHD)
Conditions: C3, 1 mg/kg
Method: The main features of Study P01 are summarized as follows: • Sequential cohorts of trial participants received macimorelin at ascending single oral doses: 0.25 mg/kg body weight in Cohort 1 (C1), 0.5 mg/kg body weight in Cohort 2 (C2), and 1 mg/kg body weight in Cohort 3 (C3). • For determination of macimorelin PK/PD: blood sampling at pre-dose, then 15, 30, 45, 60, 90, 120, and 360 minutes after the administration of macimorelin. • Two standard GHSTs (sGHSTs) had to be performed in a patient according to local practice. The related sGHST agents were considered as ‘background’ and not as IMPs. (Accepted test agents: insulin (insulin tolerance test or ITT), arginine, arginine/growth hormone releasing hormone (GHRH), clonidine, glucagon, L-dopa). Results
Peak GH values by GHD diagnosis were compared based on GHST results and investigator's assessment. Diagnostic characteristics of GH values (i.e., sensitivity, specificity, and Youden indices (non-weighted, weighted)) tested as cut-off points were listed with the most solid expression of diagnostic characteristics to be noted for C1 at a peak GH of 10.03 ng/mL, for C2 at a peak GH of 10.43 ng/mL, and for C3 at 17.13 ng/mL.
The investigator's assessment is based on local diagnostic standard practice. The macimorelin GHST was tested against a cut-off point calculated from the individual peak GH values.

[1] = cut-off approximately 17 ng/mL GH

CC(C)(N)C(=O)N[C@H](Cc1c[nH]c2ccccc12)C(=O)N[C@H](Cc1c[nH]c2ccccc12)NC=O [macimorelin]
ROC AUC of macimorelin GHST: 0.933
agreement of single macimorelin GHST with combination of two sGHSTs and with PI assessment: 7 of 8
Youden-index of macimorelin GHST [1]: 0.80
sensitivity of macimorelin GHST [1]: 1.00
specificity of macimorelin GHST [1]: 0.80
